Test results from paper PMC11773481.
These are yes or no findings as the source states them, for the method shown. In cells and extracts the contact can be indirect. Some results given as binding are weak or reduced against the parent protein; the word gives no strength.

The chains behind the UniProt entries cited, without tags or fusion partners.
UniProt Q14145: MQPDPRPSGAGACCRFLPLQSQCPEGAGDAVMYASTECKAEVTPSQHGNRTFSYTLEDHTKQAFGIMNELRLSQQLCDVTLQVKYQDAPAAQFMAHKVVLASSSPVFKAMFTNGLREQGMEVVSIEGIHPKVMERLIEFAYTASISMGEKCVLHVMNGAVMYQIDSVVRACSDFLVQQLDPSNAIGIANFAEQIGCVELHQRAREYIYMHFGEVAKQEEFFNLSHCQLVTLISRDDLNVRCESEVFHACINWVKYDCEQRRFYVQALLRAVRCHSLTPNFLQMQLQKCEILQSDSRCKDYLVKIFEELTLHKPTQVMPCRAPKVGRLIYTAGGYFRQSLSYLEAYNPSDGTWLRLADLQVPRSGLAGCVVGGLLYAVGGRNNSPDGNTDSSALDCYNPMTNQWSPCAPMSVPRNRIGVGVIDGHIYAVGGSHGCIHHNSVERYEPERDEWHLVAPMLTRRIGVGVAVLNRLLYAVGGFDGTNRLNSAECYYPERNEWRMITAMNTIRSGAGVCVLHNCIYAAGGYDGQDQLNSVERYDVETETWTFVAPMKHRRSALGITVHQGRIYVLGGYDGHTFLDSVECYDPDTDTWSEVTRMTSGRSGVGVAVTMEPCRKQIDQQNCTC

Target: FLAG-tagged full-length (FL) KEAP1 (UniProt Q14145)
Test: co-IP; proteins transiently expressed in HEK 293T cells (with endogenous DPP8/9), anti-FLAG agarose IP, immunoblot; in Figure 6C cells treated with H2O2 (100, 250, 500 μΜ) for 3 h

B1: endogenous DPP3 (enzyme, UniProt Q9NY33 1-737)
chain: MADTQYILPNDIGVSSLDCREAFRLLSPTERLYAYHLSRAAWYGGLAVLLQTSPEAPYIYALLSRLFRAQDPDQLRQHALAEGLTEEEYQAFLVYAAGVYSNMGNYKSFGDTKFVPNLPKEKLERVILGSEAAQQHPEEVRGLWQTCGELMFSLEPRLRHLGLGKEGITTYFSGNCTMEDAKLAQDFLDSQNLSAYNTRLFKEVDGEGKPYYEVRLASVLGSEPSLDSEVTSKLKSYEFRGSPFQVTRGDYAPILQKVVEQLEKAKAYAANSHQGQMLAQYIESFTQGSIEAHKRGSRFWIQDKGPIVESYIGFIESYRDPFGSRGEFEGFVAVVNKAMSAKFERLVASAEQLLKELPWPPTFEKDKFLTPDFTSLDVLTFAGSGIPAGINIPNYDDLRQTEGFKNVSLGNVLAVAYATQREKLTFLEEDDKDLYILWKGPSFDVQVGLHELLGHGSGKLFVQDEKGAFNFDQETVINPETGEQIQSWYRSGETWDSKFSTIASSYEECRAESVGLYLCLHPQVLEIFGFEGADAEDVIYVNWLNMVRAGLLALEFYTPEAFNWRQAHMQARFVILRVLLEAGEGLVTITPTTGSDGRPDARVRLDRSKIRSVGKPALERFLRRLQVLKSTGDVAGGRALYEGYATVTDAPPECFLTLRDTVLLRKESRKLIVQPNTRLEGSDVQLLEYEASAAGLIRSFSERFPEDGPELEEILTQLATADARFWKGPSEAPSGQA
- binding: binds
